From patent publication US20180355061A1
Results are given in words; binding and its absence hold for the method and conditions named. Some results given as binding are weak or reduced against the parent protein; the word gives no strength.

Sequences of proteins named here, by UniProt entry; tags and fusion partners are left off. A change or cut given only in a name is not applied to a line headed by its entry.
UniProt Q15116: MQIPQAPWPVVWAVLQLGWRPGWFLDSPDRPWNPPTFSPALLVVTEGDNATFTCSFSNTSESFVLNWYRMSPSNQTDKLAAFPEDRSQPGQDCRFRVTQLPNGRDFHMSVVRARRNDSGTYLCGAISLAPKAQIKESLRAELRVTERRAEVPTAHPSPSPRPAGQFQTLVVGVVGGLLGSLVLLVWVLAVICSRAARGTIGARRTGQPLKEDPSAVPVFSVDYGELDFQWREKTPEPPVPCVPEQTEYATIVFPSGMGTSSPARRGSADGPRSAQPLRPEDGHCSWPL

Tests used:
[1] = target: human PD-1 expressed on cells (human) (UniProt Q15116); assay: flow cytometry cell clustering of PD-L2-HEK cells with PD-1-HEK cells, % double positive events
[2] = target: human PD-1 expressed on cells (human) (UniProt Q15116); assay: flow cytometry cell clustering of PD-L1-HEK cells with PD-1-HEK cells, % double positive events

“cynomolgus monkey PD-L2 on HEK cells (from UniProt A0A2K5U5Z4 20-273) (ligand)” was tested, and the binding [1] was “binds”.

With “cynomolgus monkey PD-L1 on HEK cells (from UniProt G7PSE7 19-290) (ligand)” the binding [2] was “binds”.
